For at least one entry, the source does not settle the construct or the ends of the probe. At least one result comes from cells or an extract, where the contact may be indirect. For part of these data: No signal at the amounts used counts as a negative. For part of these data: A weaker result is weaker than the reference pair of the same experiment.
Assays:
[1] = tested on: His-MBP-eYFP-PRDM9Cst-ZnF; assay: competition with a labelled probe; conditions: EMSA (chimeras): 10 mM Tris-HCl pH 7.5, 50 mM KCl, 1 mM DTT, 50 ng/ul polydIdC, 0.05% NP-40, 50 uM ZnCl2, protein in a lysate after overexpression, protein details: His-MBP-eYFP
[2] = molecular target: PRDM9Cst-ZnF (YFP presence not stated for this assay) (UniProt W0TX95); assay: switchSENSE; conditions: 5' thiol (HSC6) on strand 1, protein in a lysate after overexpression, protein details: His-MBP, with or without eYFP, label: 3' fluorescent dye on strand 1
[3] = molecular target: PRDM9Cst-ZnF (YFP presence not stated for this assay) (UniProt W0TX95); assay: EMSA; conditions: titrated low polydIdC, 0.03% sarcosyl, ~90 h; EMSA (chimeras): 10 mM Tris-HCl pH 7.5, 50 mM KCl, 1 mM DTT, 50 ng/ul polydIdC, 0.05% NP-40, 50 uM ZnCl2; protein in a lysate after overexpression; protein details: His-MBP, with or without eYFP; label: 5' biotin
[4] = molecular target: PRDM9Cst-ZnF (YFP presence not stated for this assay) (UniProt W0TX95); assay: competition with a labelled probe; conditions: 100-fold excess added simultaneously with 75 bp hot Hlx1 B6; EMSA (chimeras): 10 mM Tris-HCl pH 7.5, 50 mM KCl, 1 mM DTT, 50 ng/ul polydIdC, 0.05% NP-40, 50 uM ZnCl2; protein in a lysate after overexpression; protein details: His-MBP, with or without eYFP
[5] = significantly reduced versus 31 bp or longer

“GTGCAGACTTGGACCCTGCCCTTTCTTT (double strand) [cold Hlx1 B6 28 bp-u]”: binds more weakly [1, 5].

“AATAGTGTGCAGACTTGGACCCTGCCCTTTCTTT (double strand) [cold Hlx1 B6 34 bp]”: binds ([1]; similar to 31 bp, weaker than 75 bp).

Sequence “GATGGTGGGTGAATAGTGTGCAGACTTGGACCCTGCCCTTTCTTTACG (double strand) [Hlx1 B6 48 bp]” has a Kd ([2]; 50 ng/ul polydIdC, kon 135 M-1 s-1, koff 2.2e-5 s-1) of 160 nM, a Kd ([2]; titrated low polydIdC, kon 725 M-1 s-1, koff 1.1e-5 s-1) of 15.7 nM and a Kd ([2]; titrated low polydIdC, kon 1908 M-1 s-1, koff 1.4e-5 s-1) of 7.2 nM.

Sequence “GTGGGAGGAGATGGTGGGTGAATAGTGTGCAGACTTGGACCCTGCCCTTTCTTTACGCATTCCACTAACCATGGG (double strand) [Hlx1 B6 75 bp (hot)]” has a Kd [3] of 24.5 nM.

“GTGGGAGGAGATGGTGGGTGAATAGTGTGCAGACTTGGACCCTGCCCTTTCTTTACGCATTCCACTAACCATGGG (double strand) [cold Hlx1 B6 75 bp]”: binds ([1]; strongest competitor, significantly better than 31 and 34 bp).

“AGTGTGCAGACTTGGACCCTGCCCTTTC (double strand) [cold Hlx1 B6 28 bp-d]”: binds more weakly [1, 5].

“TGAATAGTGTGCAGACTTGGACCCTGCCCTTTCTTTACG (double strand) [cold Hlx1 B6 39 bp]”: binds ([1]; stronger than 31 and 34 bp); binds [4].

“CTGCCTAAAGGTCAGAATCCACCATAGTGAGAGATAGCAAGTGCTGCT (double strand) [usDNA 48 bp]”: no binding ([2]; 50 ng/ul polydIdC, up to 1250 nM protein).

“AGTGTGCAGACTTGGACCCTGCCCTTTCTTT (double strand) [cold Hlx1 B6 31 bp]”: binds ([1]; similar to 34 bp, weaker than 75 bp).
